Publication PMC9254885
These are yes or no findings as the source states them, for the method shown. In cells and extracts the contact can be indirect. Some binding calls cover weakened binding; strength is not graded here.

T1: endogenous CPS1 (HepG2 cells) (human (endogenous in HepG2)) (UniProt P31327)
T1 sequence: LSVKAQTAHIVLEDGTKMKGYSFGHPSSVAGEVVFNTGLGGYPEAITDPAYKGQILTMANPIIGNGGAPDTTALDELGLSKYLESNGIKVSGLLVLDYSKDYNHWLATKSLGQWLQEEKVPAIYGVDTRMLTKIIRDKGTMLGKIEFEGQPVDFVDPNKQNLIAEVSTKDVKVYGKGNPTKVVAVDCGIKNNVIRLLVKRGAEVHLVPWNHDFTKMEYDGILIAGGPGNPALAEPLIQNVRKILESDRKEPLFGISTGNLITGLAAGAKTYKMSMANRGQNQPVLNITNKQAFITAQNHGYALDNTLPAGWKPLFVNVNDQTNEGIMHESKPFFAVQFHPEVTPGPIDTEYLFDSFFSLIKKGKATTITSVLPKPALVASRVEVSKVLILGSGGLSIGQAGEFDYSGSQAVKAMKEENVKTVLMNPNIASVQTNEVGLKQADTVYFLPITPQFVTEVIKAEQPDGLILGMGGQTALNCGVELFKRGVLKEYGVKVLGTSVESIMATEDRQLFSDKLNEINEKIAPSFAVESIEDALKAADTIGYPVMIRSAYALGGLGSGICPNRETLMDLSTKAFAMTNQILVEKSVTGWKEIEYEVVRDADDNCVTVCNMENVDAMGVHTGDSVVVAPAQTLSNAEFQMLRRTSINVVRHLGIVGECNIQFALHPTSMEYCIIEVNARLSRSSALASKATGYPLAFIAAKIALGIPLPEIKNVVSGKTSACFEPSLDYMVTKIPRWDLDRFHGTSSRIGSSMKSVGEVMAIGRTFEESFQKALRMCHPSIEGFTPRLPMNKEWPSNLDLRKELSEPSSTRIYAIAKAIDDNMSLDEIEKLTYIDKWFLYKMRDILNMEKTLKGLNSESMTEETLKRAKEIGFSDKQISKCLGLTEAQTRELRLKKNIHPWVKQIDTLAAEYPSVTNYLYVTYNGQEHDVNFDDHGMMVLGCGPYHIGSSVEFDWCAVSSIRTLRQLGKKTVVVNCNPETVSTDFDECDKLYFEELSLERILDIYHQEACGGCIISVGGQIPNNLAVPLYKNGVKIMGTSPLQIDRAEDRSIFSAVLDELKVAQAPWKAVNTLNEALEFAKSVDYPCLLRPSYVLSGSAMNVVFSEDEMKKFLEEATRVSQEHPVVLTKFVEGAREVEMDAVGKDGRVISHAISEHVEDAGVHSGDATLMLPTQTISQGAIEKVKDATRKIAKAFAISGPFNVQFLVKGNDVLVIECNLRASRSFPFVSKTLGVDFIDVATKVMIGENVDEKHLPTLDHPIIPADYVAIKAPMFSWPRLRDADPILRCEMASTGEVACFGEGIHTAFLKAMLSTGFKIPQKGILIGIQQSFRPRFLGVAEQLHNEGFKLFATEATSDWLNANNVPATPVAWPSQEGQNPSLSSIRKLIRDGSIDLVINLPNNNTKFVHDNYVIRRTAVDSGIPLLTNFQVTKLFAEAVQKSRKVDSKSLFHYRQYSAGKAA

T2: endogenous OGT (HepG2 cells) (human (endogenous in HepG2)) (UniProt O15294)
T2 sequence: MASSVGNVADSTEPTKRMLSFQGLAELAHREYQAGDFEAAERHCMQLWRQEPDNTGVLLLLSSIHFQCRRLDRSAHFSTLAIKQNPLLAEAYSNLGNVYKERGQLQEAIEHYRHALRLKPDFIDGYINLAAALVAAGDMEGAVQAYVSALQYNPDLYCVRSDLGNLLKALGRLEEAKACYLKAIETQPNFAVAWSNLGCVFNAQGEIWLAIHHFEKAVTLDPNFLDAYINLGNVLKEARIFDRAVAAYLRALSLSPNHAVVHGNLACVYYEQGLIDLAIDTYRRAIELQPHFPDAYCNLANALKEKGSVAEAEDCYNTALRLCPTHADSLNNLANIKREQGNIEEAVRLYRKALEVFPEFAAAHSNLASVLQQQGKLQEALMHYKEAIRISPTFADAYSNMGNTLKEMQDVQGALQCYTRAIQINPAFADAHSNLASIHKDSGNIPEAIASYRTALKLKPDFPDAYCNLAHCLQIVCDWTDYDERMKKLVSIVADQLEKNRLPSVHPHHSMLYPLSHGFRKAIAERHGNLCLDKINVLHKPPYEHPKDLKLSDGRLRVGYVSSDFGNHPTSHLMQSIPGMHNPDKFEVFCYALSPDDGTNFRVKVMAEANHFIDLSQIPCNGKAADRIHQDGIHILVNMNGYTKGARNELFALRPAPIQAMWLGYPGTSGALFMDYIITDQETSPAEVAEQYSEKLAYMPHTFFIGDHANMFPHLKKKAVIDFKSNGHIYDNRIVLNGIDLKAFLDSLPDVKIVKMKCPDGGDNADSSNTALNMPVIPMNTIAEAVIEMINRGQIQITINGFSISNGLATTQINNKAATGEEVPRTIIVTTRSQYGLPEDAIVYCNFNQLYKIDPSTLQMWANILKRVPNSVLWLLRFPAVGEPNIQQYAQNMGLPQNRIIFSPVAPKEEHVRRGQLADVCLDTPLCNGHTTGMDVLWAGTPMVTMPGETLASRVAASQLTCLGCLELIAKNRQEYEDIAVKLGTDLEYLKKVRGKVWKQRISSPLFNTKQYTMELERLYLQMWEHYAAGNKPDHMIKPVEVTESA


How the values were obtained:
[1] = molecular target: T1, endogenous CPS1 (HepG2 cells) (human (endogenous in HepG2)); assay: co-IP; HepG2 cells cultured with low and high glucose for 16 h; IP of endogenous proteins with anti-CPS1 and anti-OGT antibody
[2] = molecular target: T2, endogenous OGT (HepG2 cells) (human (endogenous in HepG2)); assay: as above

binding [1] | binding [2] | Binder
binds |  | endogenous OGT (HepG2 cells) (enzyme, UniProt O15294 1-1046) MASSVGNVADSTEPTKRMLSFQGLAELAHREYQAGDFEAAERHCMQLWRQEPDNTGVLLLLSSIHFQCRRLDRSAHFSTLAIKQNPLLAEAYSNLGNVYKERGQLQEAIEHYRHALRLKPDFIDGYINLAAALVAAGDMEGAVQAYVSALQYNPDLYCVRSDLGNLLKALGRLEEAKACYLKAIETQPNFAVAWSNLGCVFNAQGEIWLAIHHFEKAVTLDPNFLDAYINLGNVLKEARIFDRAVAAYLRALSLSPNHAVVHGNLACVYYEQGLIDLAIDTYRRAIELQPHFPDAYCNLANALKEKGSVAEAEDCYNTALRLCPTHADSLNNLANIKREQGNIEEAVRLYRKALEVFPEFAAAHSNLASVLQQQGKLQEALMHYKEAIRISPTFADAYSNMGNTLKEMQDVQGALQCYTRAIQINPAFADAHSNLASIHKDSGNIPEAIASYRTALKLKPDFPDAYCNLAHCLQIVCDWTDYDERMKKLVSIVADQLEKNRLPSVHPHHSMLYPLSHGFRKAIAERHGNLCLDKINVLHKPPYEHPKDLKLSDGRLRVGYVSSDFGNHPTSHLMQSIPGMHNPDKFEVFCYALSPDDGTNFRVKVMAEANHFIDLSQIPCNGKAADRIHQDGIHILVNMNGYTKGARNELFALRPAPIQAMWLGYPGTSGALFMDYIITDQETSPAEVAEQYSEKLAYMPHTFFIGDHANMFPHLKKKAVIDFKSNGHIYDNRIVLNGIDLKAFLDSLPDVKIVKMKCPDGGDNADSSNTALNMPVIPMNTIAEAVIEMINRGQIQITINGFSISNGLATTQINNKAATGEEVPRTIIVTTRSQYGLPEDAIVYCNFNQLYKIDPSTLQMWANILKRVPNSVLWLLRFPAVGEPNIQQYAQNMGLPQNRIIFSPVAPKEEHVRRGQLADVCLDTPLCNGHTTGMDVLWAGTPMVTMPGETLASRVAASQLTCLGCLELIAKNRQEYEDIAVKLGTDLEYLKKVRGKVWKQRISSPLFNTKQYTMELERLYLQMWEHYAAGNKPDHMIKPVEVTESA
 | binds | endogenous CPS1 (HepG2 cells) (enzyme, UniProt P31327 39-1500) LSVKAQTAHIVLEDGTKMKGYSFGHPSSVAGEVVFNTGLGGYPEAITDPAYKGQILTMANPIIGNGGAPDTTALDELGLSKYLESNGIKVSGLLVLDYSKDYNHWLATKSLGQWLQEEKVPAIYGVDTRMLTKIIRDKGTMLGKIEFEGQPVDFVDPNKQNLIAEVSTKDVKVYGKGNPTKVVAVDCGIKNNVIRLLVKRGAEVHLVPWNHDFTKMEYDGILIAGGPGNPALAEPLIQNVRKILESDRKEPLFGISTGNLITGLAAGAKTYKMSMANRGQNQPVLNITNKQAFITAQNHGYALDNTLPAGWKPLFVNVNDQTNEGIMHESKPFFAVQFHPEVTPGPIDTEYLFDSFFSLIKKGKATTITSVLPKPALVASRVEVSKVLILGSGGLSIGQAGEFDYSGSQAVKAMKEENVKTVLMNPNIASVQTNEVGLKQADTVYFLPITPQFVTEVIKAEQPDGLILGMGGQTALNCGVELFKRGVLKEYGVKVLGTSVESIMATEDRQLFSDKLNEINEKIAPSFAVESIEDALKAADTIGYPVMIRSAYALGGLGSGICPNRETLMDLSTKAFAMTNQILVEKSVTGWKEIEYEVVRDADDNCVTVCNMENVDAMGVHTGDSVVVAPAQTLSNAEFQMLRRTSINVVRHLGIVGECNIQFALHPTSMEYCIIEVNARLSRSSALASKATGYPLAFIAAKIALGIPLPEIKNVVSGKTSACFEPSLDYMVTKIPRWDLDRFHGTSSRIGSSMKSVGEVMAIGRTFEESFQKALRMCHPSIEGFTPRLPMNKEWPSNLDLRKELSEPSSTRIYAIAKAIDDNMSLDEIEKLTYIDKWFLYKMRDILNMEKTLKGLNSESMTEETLKRAKEIGFSDKQISKCLGLTEAQTRELRLKKNIHPWVKQIDTLAAEYPSVTNYLYVTYNGQEHDVNFDDHGMMVLGCGPYHIGSSVEFDWCAVSSIRTLRQLGKKTVVVNCNPETVSTDFDECDKLYFEELSLERILDIYHQEACGGCIISVGGQIPNNLAVPLYKNGVKIMGTSPLQIDRAEDRSIFSAVLDELKVAQAPWKAVNTLNEALEFAKSVDYPCLLRPSYVLSGSAMNVVFSEDEMKKFLEEATRVSQEHPVVLTKFVEGAREVEMDAVGKDGRVISHAISEHVEDAGVHSGDATLMLPTQTISQGAIEKVKDATRKIAKAFAISGPFNVQFLVKGNDVLVIECNLRASRSFPFVSKTLGVDFIDVATKVMIGENVDEKHLPTLDHPIIPADYVAIKAPMFSWPRLRDADPILRCEMASTGEVACFGEGIHTAFLKAMLSTGFKIPQKGILIGIQQSFRPRFLGVAEQLHNEGFKLFATEATSDWLNANNVPATPVAWPSQEGQNPSLSSIRKLIRDGSIDLVINLPNNNTKFVHDNYVIRRTAVDSGIPLLTNFQVTKLFAEAVQKSRKVDSKSLFHYRQYSAGKAA
